# Measured values: the supplement of paper PMC10849652
# Sequences of proteins named here, by UniProt entry; tags and fusion partners are left off. A change or cut given only in a name is not applied to a line headed by its entry.
# UniProt P57737: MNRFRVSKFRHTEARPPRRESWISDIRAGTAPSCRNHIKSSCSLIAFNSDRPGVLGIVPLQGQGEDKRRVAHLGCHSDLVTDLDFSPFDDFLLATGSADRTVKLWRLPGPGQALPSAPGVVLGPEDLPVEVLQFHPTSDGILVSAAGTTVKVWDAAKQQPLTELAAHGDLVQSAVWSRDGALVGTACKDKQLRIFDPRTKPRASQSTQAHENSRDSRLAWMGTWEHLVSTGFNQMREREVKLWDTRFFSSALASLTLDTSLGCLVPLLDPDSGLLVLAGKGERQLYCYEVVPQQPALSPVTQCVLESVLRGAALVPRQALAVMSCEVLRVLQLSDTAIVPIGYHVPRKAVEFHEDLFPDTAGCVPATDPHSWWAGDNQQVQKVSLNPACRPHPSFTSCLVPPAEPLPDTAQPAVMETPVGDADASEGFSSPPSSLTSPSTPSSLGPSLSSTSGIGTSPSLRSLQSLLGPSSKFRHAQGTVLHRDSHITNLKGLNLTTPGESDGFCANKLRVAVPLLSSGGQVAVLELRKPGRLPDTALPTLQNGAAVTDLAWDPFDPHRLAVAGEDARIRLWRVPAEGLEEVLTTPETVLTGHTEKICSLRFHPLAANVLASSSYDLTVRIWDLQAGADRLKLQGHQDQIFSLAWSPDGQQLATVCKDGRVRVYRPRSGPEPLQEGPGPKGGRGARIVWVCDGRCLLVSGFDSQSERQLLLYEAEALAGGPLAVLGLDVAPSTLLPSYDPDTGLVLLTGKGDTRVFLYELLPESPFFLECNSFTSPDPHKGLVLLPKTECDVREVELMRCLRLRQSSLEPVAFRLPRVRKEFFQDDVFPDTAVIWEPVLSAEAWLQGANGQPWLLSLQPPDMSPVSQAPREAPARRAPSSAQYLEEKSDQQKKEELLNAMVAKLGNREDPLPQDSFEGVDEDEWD
# UniProt Q8IYK4: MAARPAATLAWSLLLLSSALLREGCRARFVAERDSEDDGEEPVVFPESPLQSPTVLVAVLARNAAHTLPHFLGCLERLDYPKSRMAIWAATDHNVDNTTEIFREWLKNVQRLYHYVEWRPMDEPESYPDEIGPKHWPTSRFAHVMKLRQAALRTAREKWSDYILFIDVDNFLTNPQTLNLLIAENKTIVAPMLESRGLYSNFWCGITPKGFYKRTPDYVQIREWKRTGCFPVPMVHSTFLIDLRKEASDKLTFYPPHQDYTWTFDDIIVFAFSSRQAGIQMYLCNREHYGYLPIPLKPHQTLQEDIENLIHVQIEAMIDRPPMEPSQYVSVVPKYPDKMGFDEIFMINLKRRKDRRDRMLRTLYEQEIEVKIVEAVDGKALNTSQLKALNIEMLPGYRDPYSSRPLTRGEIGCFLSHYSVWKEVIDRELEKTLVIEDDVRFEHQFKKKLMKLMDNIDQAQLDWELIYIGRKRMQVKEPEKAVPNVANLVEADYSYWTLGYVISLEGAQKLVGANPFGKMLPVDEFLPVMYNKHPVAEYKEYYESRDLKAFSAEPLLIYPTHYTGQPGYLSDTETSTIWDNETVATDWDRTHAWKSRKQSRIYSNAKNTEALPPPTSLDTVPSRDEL
# UniProt P10606, whole entry, looked up: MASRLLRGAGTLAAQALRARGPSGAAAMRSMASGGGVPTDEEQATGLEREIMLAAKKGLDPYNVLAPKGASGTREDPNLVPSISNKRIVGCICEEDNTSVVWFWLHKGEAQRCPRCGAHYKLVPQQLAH
# UniProt Q7KZN9: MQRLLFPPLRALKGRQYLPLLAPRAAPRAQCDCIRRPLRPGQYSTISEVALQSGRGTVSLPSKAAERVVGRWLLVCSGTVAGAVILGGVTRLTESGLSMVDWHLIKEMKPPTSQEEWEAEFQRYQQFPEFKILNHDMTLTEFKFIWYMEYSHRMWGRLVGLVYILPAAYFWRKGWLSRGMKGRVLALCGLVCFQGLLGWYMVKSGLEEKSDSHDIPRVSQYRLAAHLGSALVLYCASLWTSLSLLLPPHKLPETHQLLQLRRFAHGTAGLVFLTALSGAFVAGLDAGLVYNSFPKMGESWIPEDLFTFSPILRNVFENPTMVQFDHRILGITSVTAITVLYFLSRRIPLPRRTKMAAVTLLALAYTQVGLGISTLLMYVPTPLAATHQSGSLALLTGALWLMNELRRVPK
# UniProt Q9UNS2: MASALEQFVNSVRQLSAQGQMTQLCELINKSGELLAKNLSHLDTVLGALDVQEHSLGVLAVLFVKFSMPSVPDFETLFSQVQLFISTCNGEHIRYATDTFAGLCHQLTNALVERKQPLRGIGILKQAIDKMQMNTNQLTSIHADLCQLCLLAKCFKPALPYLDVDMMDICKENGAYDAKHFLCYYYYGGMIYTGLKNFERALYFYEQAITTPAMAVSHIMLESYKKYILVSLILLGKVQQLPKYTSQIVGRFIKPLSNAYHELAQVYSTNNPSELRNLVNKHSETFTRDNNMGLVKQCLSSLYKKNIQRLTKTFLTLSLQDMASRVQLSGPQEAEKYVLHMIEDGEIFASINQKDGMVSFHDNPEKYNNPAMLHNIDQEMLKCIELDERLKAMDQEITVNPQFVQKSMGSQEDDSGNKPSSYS
# UniProt Q9NYJ1, whole entry, looked up: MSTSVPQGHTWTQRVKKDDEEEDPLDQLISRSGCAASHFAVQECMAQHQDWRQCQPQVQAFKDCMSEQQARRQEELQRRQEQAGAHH
# UniProt Q86X83, whole entry, looked up: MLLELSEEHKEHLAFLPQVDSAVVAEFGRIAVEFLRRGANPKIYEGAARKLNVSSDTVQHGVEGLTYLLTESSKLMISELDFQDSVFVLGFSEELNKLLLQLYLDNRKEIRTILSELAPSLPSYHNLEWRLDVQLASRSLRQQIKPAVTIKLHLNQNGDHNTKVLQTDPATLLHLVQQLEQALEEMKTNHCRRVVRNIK
# UniProt Q9UIV1, whole entry, looked up: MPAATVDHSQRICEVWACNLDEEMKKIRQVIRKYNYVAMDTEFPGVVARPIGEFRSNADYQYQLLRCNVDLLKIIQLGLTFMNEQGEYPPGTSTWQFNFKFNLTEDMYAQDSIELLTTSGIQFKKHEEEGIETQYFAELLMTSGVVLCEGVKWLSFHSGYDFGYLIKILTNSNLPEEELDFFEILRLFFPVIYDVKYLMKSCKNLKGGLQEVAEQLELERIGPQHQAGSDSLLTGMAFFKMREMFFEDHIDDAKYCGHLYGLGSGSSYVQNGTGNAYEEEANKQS
# UniProt Q92600, whole entry, looked up: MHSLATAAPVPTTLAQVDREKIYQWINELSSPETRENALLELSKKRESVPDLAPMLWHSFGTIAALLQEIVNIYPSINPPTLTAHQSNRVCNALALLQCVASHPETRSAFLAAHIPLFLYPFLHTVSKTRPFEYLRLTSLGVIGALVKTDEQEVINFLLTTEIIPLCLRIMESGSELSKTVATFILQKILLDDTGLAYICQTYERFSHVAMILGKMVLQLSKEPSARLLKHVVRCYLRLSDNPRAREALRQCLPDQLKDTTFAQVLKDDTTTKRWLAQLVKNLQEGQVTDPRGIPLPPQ
# UniProt Q9BR76, whole entry, looked up: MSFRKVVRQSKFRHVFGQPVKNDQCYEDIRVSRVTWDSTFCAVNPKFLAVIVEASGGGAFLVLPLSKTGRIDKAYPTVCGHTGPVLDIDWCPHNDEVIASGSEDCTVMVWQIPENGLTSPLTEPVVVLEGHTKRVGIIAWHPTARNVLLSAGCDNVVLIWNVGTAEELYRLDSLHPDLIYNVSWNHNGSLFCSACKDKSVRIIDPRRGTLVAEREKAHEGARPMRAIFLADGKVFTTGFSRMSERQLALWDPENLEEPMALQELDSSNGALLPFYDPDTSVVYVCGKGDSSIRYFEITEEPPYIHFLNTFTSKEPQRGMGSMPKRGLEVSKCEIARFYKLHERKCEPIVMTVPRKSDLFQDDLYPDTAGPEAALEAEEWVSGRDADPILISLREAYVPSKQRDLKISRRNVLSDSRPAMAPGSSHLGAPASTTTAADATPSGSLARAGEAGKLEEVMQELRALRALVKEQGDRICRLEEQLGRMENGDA
# UniProt O75208: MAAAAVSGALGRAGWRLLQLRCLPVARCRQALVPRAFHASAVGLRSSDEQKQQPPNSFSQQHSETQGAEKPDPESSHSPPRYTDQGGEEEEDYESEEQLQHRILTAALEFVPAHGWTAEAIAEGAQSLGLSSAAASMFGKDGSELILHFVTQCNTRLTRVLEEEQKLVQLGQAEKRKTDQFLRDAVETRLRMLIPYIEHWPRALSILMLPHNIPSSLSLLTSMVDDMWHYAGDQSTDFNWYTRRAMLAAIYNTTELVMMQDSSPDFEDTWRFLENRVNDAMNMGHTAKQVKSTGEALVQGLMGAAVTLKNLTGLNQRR
# UniProt Q14019: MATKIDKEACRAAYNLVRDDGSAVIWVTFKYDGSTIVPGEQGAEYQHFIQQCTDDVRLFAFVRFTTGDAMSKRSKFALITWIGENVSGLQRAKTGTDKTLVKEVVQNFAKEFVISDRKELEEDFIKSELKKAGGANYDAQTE
# Some of the results follow.
# Compound: NCC(=O)Nc1ccc(-n2nc(C(F)(F)F)cc2-c2ccc3c(ccc4ccccc43)c2)cc1
# Assay: log2 fold change, soluble protein after heating vs DMSO (PISA); higher = thermal stabilisation; K562 lysate, 10 uM; active = over 0.2 and 3.5 SD of the protein, either way, in both replicates (recomputed)
# Outline: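 Pellets of K562 cells were dounce-homogenised in PBS pH 7.4 with 1 mM MgCl2, and the crude extract was held at 1 mg/mL protein for a 30 min treatment with 10 μM compound. Aliquots were heated for 3 min over 48°C-58°C and pooled before NP-40 was added to 0.5% at 4°C. The supernatant from 21,000xg for 90 min was quantified by TMTpro 16plex LC-MS/MS with channel sums equalised. Values are reported from duplicates as log-two fold change in thermal stability relative to solvent controls.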
row,Target,log2 fold change
1,CORO7 (UniProt P57737),inactive: -0.053
2,COLGALT2 (UniProt Q8IYK4),inactive: -0.012
3,COPS4 (UniProt Q9BT78),inactive: -0.036
4,COX5B (UniProt P10606),inactive: -0.06
5,COX15 (UniProt Q7KZN9),inactive: -0.035
6,COPS3 (UniProt Q9UNS2),inactive: 0.036
7,CORO7 isoform 3 (UniProt P57737),inactive: -0.045
8,COA4 isoform 2 (UniProt Q9NYJ1),inactive: -0.108
9,COMMD2 (UniProt Q86X83),inactive: 0.031
10,CNOT11 (UniProt Q9UKZ1),inactive: -0.008
11,CNOT7 (UniProt Q9UIV1),inactive: 0.012
12,CNOT9 (UniProt Q92600),inactive: -0.022
13,CORO1B (UniProt Q9BR76),inactive: 0
14,COQ9 (UniProt O75208),inactive: 0.005
15,COTL1 (UniProt Q14019),inactive: -0.03

# Two consecutive records already listed, quoted:
row,Target,log2 fold change
11,CNOT7 (UniProt Q9UIV1),inactive: 0.012
12,CNOT9 (UniProt Q92600),inactive: -0.022
